# In PubChem BioAssay AID540276 (National Center for Advancing Translational Sciences (NCATS), 2011):
# Out of some 300,000 compounds screened, about 5,400 (1.8%) were called active. Inconclusive means that the source gave no clear call. Such entries were picked first, then a sample of the others. Calls come from the whole dose curve; tested in HEK293 cells. Potencies beside an inconclusive call are fits to weak or partial responses and may not hold up.
# Assay: qHTS for inhibitors of binding or entry into cells for Marburg Virus
# Settings: Marburg virus pseudotyped entry inhibition, cell reporter; activity change, negative = inhibition: at 37.8 µM (top of the series) unless noted
# % is set by controls: 0 for no effect and ±100 for the full control effect; potency is the fitted concentration of half-maximal effect.
SMILES,Potency,"activity change, negative = inhibition"
COc1ccc(N2CCN(C(=O)NCc3ccc(OC)c(Cl)c3)CC2)cc1,"inconclusive: 6.31 µM [activator, single point]",–
COc1ccc(CNCc2c(C(=O)O)c(C)n(Cc3ccccc3C)c2C)c(OC)c1,–,inactive: -15.2% [at 46.1 µM]
Cc1cc(C)n2c(SCC(C)C)nnc2n1,"inconclusive: 1.78 µM [activator, full curve]",–
CC1(C)CC(=O)C2=C(C1)OC(N)=C(C#N)C21CCN(Cc2ccccc2)CC1,"inconclusive: 0.0046 µM [inhibitor, full curve, poor fit]",–
CCOC(=O)[C@]12C[C@@H]3OCCN(C(=O)N[C@@H]1c1ccccc1)[C@@H]32,–,inactive: 1.54% [at 14.2 µM]
Nc1cc(OC(=O)c2c(F)cccc2Cl)nn1S(=O)(=O)c1ccccc1,"inconclusive: 11.2 µM [inhibitor, partial curve, poor fit]",–
COc1ccc(Cc2nnc(NC(=O)c3cccs3)s2)cc1OC,"inconclusive: 7.94 µM [inhibitor, partial curve, poor fit]",–
COc1cc2c(cc1OC)/C(=C/C(=O)c1ccc(OC)c([N+](=O)[O-])c1)NCC2,"inconclusive: 35.5 µM [inhibitor, single point]",–
C/C(CC(=O)NCCN1CCOCC1)=N\NC(=O)c1ccncc1,"inconclusive: 0.631 µM [activator, partial curve, poor fit]",–
Cc1cc(C)cc(NC(=O)CSc2oc(-c3ccco3)nc2S(=O)(=O)c2ccc(Cl)cc2)c1,"inconclusive: 12.6 µM [activator, single point]",–
O=C(c1ccc(Cl)c(Cl)c1)N1CCN(c2ccccn2)CC1,"inconclusive: 3.16 µM [inhibitor, single point]",–
COc1ccc(CS(=O)(=O)/C(Cl)=C(/Cl)C(=O)Nc2ccc(OC)nc2)cc1,active: 2.82 µM,–
CCc1nnc(NS(=O)(=O)c2ccc(N/C=C/C(=O)c3ccc(C)cc3)cc2)s1,–,inactive: 3.21%
CC(O)(c1ccc(Cl)cc1)C(c1ccccc1)c1ccccn1 (configuration not stated),–,inactive: -10.2%
CCOC(=O)CCCNC(=O)c1cncc(Br)c1,"inconclusive: 10.3 µM [activator, partial curve, poor fit]",–
Cc1ccc2cc(CCNC(=O)C(=O)c3c[nH]c4ccccc34)c(=O)[nH]c2c1,"inconclusive: 0.562 µM [inhibitor, full curve, poor fit]",–
Cc1ccc(NC(=O)CCc2nc3sc4c(c3c(=O)[nH]2)CCCC4)c(Br)c1,"inconclusive: 5.62 µM [activator, full curve, poor fit]",–
COC(=O)C(C)N(C(=O)c1cccc2ccccc12)c1c(C)cccc1C (configuration not stated),"inconclusive: 25.9 µM [inhibitor, single point]",–
CC1C(=O)NN=C1C(=O)N/N=C\C(Br)=C\c1ccccc1 (configuration not stated),"inconclusive: 10 µM [inhibitor, single point]",–
COc1cc(CNc2nc(C)c([N+](=O)[O-])c(C)c2C#N)cc(OC)c1OC,"inconclusive: 14.1 µM [inhibitor, partial curve, poor fit]",–
COc1ccc(CCN2C(=O)CC(Cc3ccc(C)cc3)C2=O)cc1OC (configuration not stated),–,inactive: 8.8% [at 46.1 µM]
NNC(=O)CC12CC3CC(C1)CC(n1ncnn1)(C3)C2,"inconclusive: 0.112 µM [inhibitor, full curve, poor fit]",–
CCNC(=S)NC1CC2CCCC(C1)N2Cc1ccco1 (configuration not stated),"inconclusive: 4.11 µM [inhibitor, full curve, poor fit]",–

SMILES,Potency,"activity change, negative = inhibition"
O=C(/C=C/c1cccc([N+](=O)[O-])c1)NCCSCc1c(Cl)cccc1Cl,–,inactive: 2.17%
O=C(CN1CCOCC1)Nc1ccc(OCc2ccccc2)cc1,"inconclusive: 2.59 µM [activator, partial curve, poor fit]",–
CCCOc1ccc(CNC(=O)CCCn2nc(C)c3sc4ccccc4c3c2=O)cc1,"inconclusive: 31.6 µM [inhibitor, single point]",–
CSc1nc2cc(S(=O)(=O)N3CCCCC3)ccc2s1,–,inactive: -14% [at 46.1 µM]
O=C(CCC1=NS(=O)(=O)c2ccccc2N1)NC1CCCCCCC1,"inconclusive: 29.1 µM [inhibitor, single point]",–
CCOc1ccc(NC(=O)CN(C)C(=O)CCCOc2ccc(Cl)c(C)c2)cc1OCC,"inconclusive: 35.5 µM [inhibitor, single point]",–
CC1CCCCN1S(=O)(=O)c1ccc(S(=O)(=O)N2CCN(c3ccccc3)CC2)cc1 (configuration not stated),"inconclusive: 25.9 µM [inhibitor, single point]",–
O=C1C(Cl)=C(NCCN2CCOCC2)C(=O)c2ccccc21,"inconclusive: 20 µM [inhibitor, single point]",–
Cc1cc(=O)oc2cc(OCC(=O)NC3CCCCC3)ccc12,–,inactive: -11.6% [at 46.1 µM]
COc1ccc(CNC(=O)CCSCc2cccc(F)c2)cc1,"inconclusive: 6.31 µM [inhibitor, single point]",–
C/C(=N\NC(=O)c1ccc(Cl)cc1)c1ccccn1,active: 0.891 µM,–
CCn1c(SCC(N)=O)nnc1-c1ccco1,–,inactive: 1.09%
Cc1ccccc1NC(=O)OCc1cccnc1Sc1ccc(Cl)cc1,–,inactive: 11.9%
O=C(O)c1ccc(CNCc2ccccc2Cl)s1,–,inactive: 2.2% [at 46.1 µM]
CCc1ccc(C(=O)N2CCC(c3nc(-c4ccc(S(=O)(=O)N5CCCC5)cc4)no3)CC2)cc1,"inconclusive: 4.47 µM [inhibitor, partial curve, poor fit]",–
Cc1ccc(NC(=O)C2CC(=O)N(Cc3ccccc3)C2)cc1S(=O)(=O)N1CCCCCC1 (configuration not stated),"inconclusive: 35.5 µM [inhibitor, single point]",–
CC(=Nc1ccccc1)C1=C(O)CCCC1=O,–,inactive: 21.8%
CCCOc1ccc(-c2nc3c(c(=O)[nH]c(=O)n3Cc3ccccc3)n2CCO)cc1OCC,"inconclusive: 18.3 µM [inhibitor, partial curve, poor fit]",–
CCN(CC)CCn1c(=N)n(CCO)c2ccccc21,–,inactive: -3.96%
O=S(Cc1ccc(Cl)cc1)c1ccccc1 (configuration not stated),–,inactive: -16.9% [at 46.1 µM]
CC(C)[C@@]1(NC(=O)[C@@H]2C=C3c4cccc5[nH]cc(c45)C[C@H]3N(C)C2)O[C@@]2(O)[C@@H]3CCCN3C(=O)[C@H](Cc3ccccc3)N2C1=O,"inconclusive: 20.6 µM [inhibitor, single point]",–
CC(=O)Nc1c([N+](=O)[O-])cc2[nH]c(=O)[nH]c2c1[N+](=O)[O-],"inconclusive: 5.01 µM [activator, single point]",–
CN(CCOc1ccc(Cl)cc1)CC(O)c1ccccc1 (configuration not stated),"inconclusive: 28.2 µM [inhibitor, single point]",–

# Part of the list above in order of length of the SMILES, descending:
SMILES,Potency,"activity change, negative = inhibition"
COc1ccc(N2CCN(C(=O)NCc3ccc(OC)c(Cl)c3)CC2)cc1,"inconclusive: 6.31 µM [activator, single point]",–
Cc1cc(=O)oc2cc(OCC(=O)NC3CCCCC3)ccc12,–,inactive: -11.6% [at 46.1 µM]
O=C(O)c1ccc(CNCc2ccccc2Cl)s1,–,inactive: 2.2% [at 46.1 µM]

# The results go on.

SMILES,Potency,"activity change, negative = inhibition"
COc1cc(CNC(=O)c2cccc(COc3ccc(Cl)cc3)c2)cc(OC)c1,"inconclusive: 7.94 µM [inhibitor, partial curve, poor fit]",–
CCC(Sc1ncccc1C(=O)OC(C)C)C(=O)NCc1ccco1 (configuration not stated),"inconclusive: 4.11 µM [inhibitor, partial curve, poor fit]",–
CC(=O)N=C1SC2CS(=O)(=O)CC2N1c1ccccc1Cl (configuration not stated),"inconclusive: 0.562 µM [activator, full curve, poor fit]",–
C[C@@H]1CCCCCCCCCCC1=O,"inconclusive: 6.31 µM [inhibitor, single point]",–
COc1cc(CN2CCCC(C(=O)Nc3cccc(-n4cccn4)c3)C2)ccc1F (configuration not stated),"inconclusive: 1.58 µM [inhibitor, partial curve, poor fit]",–
O=C1S/C(=C/c2ccc(N3CCOCC3)o2)C(=O)N1Cc1ccc(F)cc1,–,inactive: 17.9%
CC(C)(C)OC(=O)N[C@@H](Cc1ccccc1)c1nnc(SCC(=O)c2ccc(Cl)cc2)o1,"inconclusive: 29.1 µM [inhibitor, single point]",–
O=C(CSc1ncnc2c1cnn2CCc1ccccc1)Nc1cccc(C(F)(F)F)c1,"inconclusive: 14.1 µM [inhibitor, partial curve, poor fit]",–
CCOC(=O)C1=C(C)N2C(=C(C#N)[C@@H]1c1ccc(C(=O)OC)cc1)SC[C@@]2(O)C(C)(C)C,"inconclusive: 35.5 µM [inhibitor, single point]",–
Cc1ccc(CN2CCN(CC(=O)N=Nc3c(O)[nH]c4ccccc34)CC2)cc1,"inconclusive: 10 µM [inhibitor, partial curve, poor fit]",–
CCCCC(=O)NCCNc1nc2c(c(=O)n(C)c(=O)n2C)n1Cc1ccccc1,"inconclusive: 22.4 µM [inhibitor, single point]",–
COc1ccc(/C(N)=N/OC(=O)Cc2ccc(C)cc2)cc1,–,inactive: -13.9%
CCc1ccc(NC(=O)COC(=O)C2(c3ccc(Cl)cc3)CCCC2)cc1,–,inactive: 24.2%
CC1=Nc2cc(C(=O)NCCCN3CCOCC3)ccc2Sc2c(C)ccc(C)c21,"inconclusive: 3.16 µM [inhibitor, full curve, poor fit]",–
CCN(CC)c1nc2c(c(=O)[nH]c(=O)n2C)n1CCOc1ccccc1,–,inactive: -1.8%
NNC(=O)CNC(=O)CNS(=O)(=O)c1ccccc1,–,inactive: 23.7% [at 46.1 µM]
O=S(=O)(Cc1cc(N2CCOCC2)nc(-c2ccccn2)n1)c1ccccc1,"inconclusive: 8.91 µM [inhibitor, partial curve, poor fit]",–
CCOC(=O)C1(CCOc2ccccc2)CCN(Cc2ccc3nonc3c2)CC1,–,inactive: 5.15% [at 46.1 µM]
O=C(COc1ccc(Cl)cc1Cl)N(c1ccccn1)C1CCCCC1,"inconclusive: 13 µM [inhibitor, partial curve, poor fit]",–
COC(=O)C1C[C@@]23C(=NN=C(SC)C2N(C)c2ccc(OC)cc23)N1C(C)=O (some centres not stated),–,inactive: -33.2% [at 14.2 µM]
CC(C)(O)C#Cc1ccc(C(=O)NC(CCCNC(N)=O)C(=O)O)s1 (configuration not stated),"inconclusive: 35.5 µM [activator, single point]",–

# By substructure, the entries above with a cyano group.
SMILES,Potency,"activity change, negative = inhibition"
CC1(C)CC(=O)C2=C(C1)OC(N)=C(C#N)C21CCN(Cc2ccccc2)CC1,"inconclusive: 0.0046 µM [inhibitor, full curve, poor fit]",–
COc1cc(CNc2nc(C)c([N+](=O)[O-])c(C)c2C#N)cc(OC)c1OC,"inconclusive: 14.1 µM [inhibitor, partial curve, poor fit]",–
CCOC(=O)C1=C(C)N2C(=C(C#N)[C@@H]1c1ccc(C(=O)OC)cc1)SC[C@@]2(O)C(C)(C)C,"inconclusive: 35.5 µM [inhibitor, single point]",–
